In publication PMC4499147:
Results are given in words; binding and its absence hold for the method and conditions named. Binding seen in cells or lysates may run through a third protein. Some binding calls cover weakened binding; strength is not graded here.

The chains behind the UniProt entries cited, without tags or fusion partners.
UniProt Q12888: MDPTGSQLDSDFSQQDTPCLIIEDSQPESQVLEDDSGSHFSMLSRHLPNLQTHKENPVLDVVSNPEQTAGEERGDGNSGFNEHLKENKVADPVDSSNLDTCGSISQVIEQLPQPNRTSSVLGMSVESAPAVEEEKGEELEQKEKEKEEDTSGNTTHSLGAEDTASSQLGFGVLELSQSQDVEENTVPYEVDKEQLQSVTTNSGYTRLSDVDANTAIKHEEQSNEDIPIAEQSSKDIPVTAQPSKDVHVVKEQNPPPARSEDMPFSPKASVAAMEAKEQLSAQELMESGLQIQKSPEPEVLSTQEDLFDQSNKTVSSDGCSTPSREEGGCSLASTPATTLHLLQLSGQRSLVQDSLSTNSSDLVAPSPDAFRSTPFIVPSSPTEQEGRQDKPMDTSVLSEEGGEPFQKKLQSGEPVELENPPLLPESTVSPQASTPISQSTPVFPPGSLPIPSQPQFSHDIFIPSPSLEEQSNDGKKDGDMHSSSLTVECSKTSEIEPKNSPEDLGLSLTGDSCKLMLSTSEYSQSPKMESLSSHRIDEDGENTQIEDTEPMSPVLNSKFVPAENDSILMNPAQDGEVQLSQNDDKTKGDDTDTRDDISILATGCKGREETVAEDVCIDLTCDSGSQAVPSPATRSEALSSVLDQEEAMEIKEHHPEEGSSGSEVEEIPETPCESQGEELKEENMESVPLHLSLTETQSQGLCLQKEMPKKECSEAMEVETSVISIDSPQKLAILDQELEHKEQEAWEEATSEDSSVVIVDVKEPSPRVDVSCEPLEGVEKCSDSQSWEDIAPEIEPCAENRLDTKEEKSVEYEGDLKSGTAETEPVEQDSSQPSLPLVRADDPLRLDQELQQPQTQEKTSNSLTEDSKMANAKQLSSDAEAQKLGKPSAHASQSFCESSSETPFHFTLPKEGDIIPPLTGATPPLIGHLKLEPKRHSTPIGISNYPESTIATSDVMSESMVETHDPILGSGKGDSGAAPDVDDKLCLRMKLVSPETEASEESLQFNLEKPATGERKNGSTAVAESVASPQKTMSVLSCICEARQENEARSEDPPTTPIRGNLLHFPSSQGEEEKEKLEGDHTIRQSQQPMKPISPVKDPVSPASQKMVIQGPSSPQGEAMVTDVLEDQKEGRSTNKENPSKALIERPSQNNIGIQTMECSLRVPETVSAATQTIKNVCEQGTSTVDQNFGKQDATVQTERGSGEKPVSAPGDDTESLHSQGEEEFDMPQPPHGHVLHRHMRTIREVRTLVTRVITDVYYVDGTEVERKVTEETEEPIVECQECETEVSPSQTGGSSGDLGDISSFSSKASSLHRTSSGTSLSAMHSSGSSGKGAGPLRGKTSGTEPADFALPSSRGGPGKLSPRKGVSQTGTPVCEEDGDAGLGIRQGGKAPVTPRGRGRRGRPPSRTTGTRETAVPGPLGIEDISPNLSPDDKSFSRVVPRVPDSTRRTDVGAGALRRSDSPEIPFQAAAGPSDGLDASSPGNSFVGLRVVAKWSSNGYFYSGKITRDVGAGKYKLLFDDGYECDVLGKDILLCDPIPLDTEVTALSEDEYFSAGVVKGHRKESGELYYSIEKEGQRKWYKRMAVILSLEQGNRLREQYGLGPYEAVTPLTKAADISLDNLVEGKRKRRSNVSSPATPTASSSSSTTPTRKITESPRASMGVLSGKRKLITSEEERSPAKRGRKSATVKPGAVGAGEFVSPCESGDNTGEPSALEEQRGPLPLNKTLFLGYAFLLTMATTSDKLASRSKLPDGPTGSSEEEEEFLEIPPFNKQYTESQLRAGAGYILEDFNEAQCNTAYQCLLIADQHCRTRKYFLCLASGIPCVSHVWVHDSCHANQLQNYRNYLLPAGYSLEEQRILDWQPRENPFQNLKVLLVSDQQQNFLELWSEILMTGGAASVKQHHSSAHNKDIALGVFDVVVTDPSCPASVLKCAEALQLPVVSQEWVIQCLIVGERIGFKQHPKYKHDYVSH
UniProt Q8IYW5: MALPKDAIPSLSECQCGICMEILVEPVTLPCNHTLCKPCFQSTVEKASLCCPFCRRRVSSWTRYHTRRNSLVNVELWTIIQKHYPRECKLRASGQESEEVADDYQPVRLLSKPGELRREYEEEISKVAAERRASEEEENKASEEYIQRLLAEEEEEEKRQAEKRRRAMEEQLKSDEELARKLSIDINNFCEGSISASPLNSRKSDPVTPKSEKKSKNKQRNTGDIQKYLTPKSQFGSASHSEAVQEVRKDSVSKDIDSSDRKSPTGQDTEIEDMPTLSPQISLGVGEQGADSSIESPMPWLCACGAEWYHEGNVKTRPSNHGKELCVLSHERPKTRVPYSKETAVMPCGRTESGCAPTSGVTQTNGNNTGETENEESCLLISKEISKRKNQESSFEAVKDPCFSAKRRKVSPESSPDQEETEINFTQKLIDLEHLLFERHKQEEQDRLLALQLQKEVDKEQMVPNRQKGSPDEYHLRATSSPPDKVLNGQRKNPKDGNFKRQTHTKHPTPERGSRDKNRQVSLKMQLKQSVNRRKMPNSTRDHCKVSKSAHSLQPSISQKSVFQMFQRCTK

Target: endogenous 53BP1 (p53 binding protein 1) (human (endogenous in 293T)) (UniProt Q12888)
Test: co-IP; chromatin-enriched fraction (P3) of transfected 293T cells, extracted with NETN, immunoprecipitation and immunoblotting; mock or bleomycin (10 μg/ml); in some panels siLSD1 and re-expression of HA-LSD1 or its mutants

binding: binds
Substance: FLAG-RNF168 (from UniProt Q8IYW5 1-571)
